Library screening results

Data taken from ChEMBL document CHEMBL3988442, “University of Dundee, Small-Polar-MMV Screening Library” (2021).

A: 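Whole-cell assay for inhibitors of Mycobacterium tuberculosis growth, labelled Cornell in the record; the read-out is not stated. The concentration is filed as 10 mM, unlikely as a test dose, so the dose is not known. The record gives no direction; compounds strong in two other growth screens of this library score well above the rest, so higher reads as stronger inhibition. About 53,000 compounds were tested under these conditions; 1.7% (about 900) showed 50% or more at least once.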
B: 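Assay on Mycobacterium tuberculosis, filed only as a heat shock assay from Cornell; the read-out is not stated. The concentration is filed as 10 mM, unlikely as a test dose, so the dose is not known. Higher reads as stronger inhibition (inferred: compounds with an IC50 in retests scored well above the rest). Size under these conditions: about 69,000 compounds, about 930 of them at 50% or above in at least one test.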

Results are given as percent effect. The controls that fix the scale are not given in the record; negative values are as filed. This is an unselected part of the compounds tested. A dash means the value is not listed here; it may have been measured.

For Cn1nc(C(=O)NC2CCCC2)cc1NC(=O)C1CC1 the result was B: -14.35%.
For Cc1occc1C(=O)N1CCC2(CC1)C(c1cnn(C)c1)CC(=O)N2C (stereo unspecified) the result was A: -8.086%; B: 14.07%.
For O=C(O)C(F)(F)F.[H][C@@]12C[C@H](C(=O)NC)CN(Cc3ccc(F)cc3)[C@]1([H])CCO2 the result was A: 28.77%; B: 4.041%.
For CC(C)Oc1cccc(C(O)CNC(=O)Nc2cccs2)c1 (stereo unspecified) the result was A: 105%; B: -18.75%.
For COCc1nc(CNC2CCSC2)no1 (stereo unspecified) the result was B: 12.02%.
For CCc1nsc(NC2CCCn3nc(COC)nc32)n1 (stereo unspecified) the result was A: 9.524%; B: -2.813%.
For CCN1CCC(N[C@@H]2CC[C@@H]2NC(=O)Cc2csc(C)n2)CC1 the result was A: 22.13%; B: -1.318%.
For CCN1C(=O)C2(CCOCC2)c2cc(NC(=O)c3cnccn3)ccc21 the result was A: 43.76%; B: 4.233%.
For O=C(O)C(F)(F)F.[H][C@@]12COC[C@]1(COCc1cccnc1)CN(C(=O)c1ccccc1F)C2 the result was A: 15.68%; B: -7.966%.
For O=C(NCc1nnc2n1CCC2)c1cn(-c2ccccc2)nn1 the result was A: 1.702%; B: -7.163%.
For CCNC(=O)C1CCCN(C(=O)Nc2ccc3c(c2)CCCN3C)C1 (stereo unspecified) the result was A: 9.782%; B: 3.248%.
For [H][C@]12CC[C@@]3(N=C(CC)N(CC(C)C)C3=O)[C@@]1([H])CN(S(=O)(=O)N(C)C)C2 the result was A: 18.68%; B: 6.143%.
For O=C(CC1CCC2(CC1)CCN(Cc1ccncc1)CC2)N1CCCC1.O=C(O)C(F)(F)F the result was B: -20.81%.
For CC(C)CNC(=O)c1[nH]nc(C2CC2)c1Br the result was A: -14.6%; B: 0.7371%.
For NC(=O)Nc1ccc(C(=O)NCCn2cccc2)cc1 the result was A: 23.03%; B: -13.6%.
For O=C(c1cc(Cn2ccc3ccccc32)[nH]n1)N1CCOCC1 the result was A: 18.81%; B: 5.262%.
For Cc1cccc(CN2CCC3(CCC(C(=O)N(C)C)O3)CC2)n1 (stereo unspecified) the result was A: 35.49%; B: 8.577%.
For Cn1cc2c(n1)C(COCC1CC1)CN(Cc1ccsc1)C2 (stereo unspecified) the result was A: 11.6%; B: 9.112%.
For CN(C(=O)Cn1nc(-c2ccc(F)cc2)ccc1=O)C1CCS(=O)(=O)C1 (stereo unspecified) the result was A: -7.986%; B: 16.43%.
For Cc1nc2c(c(C)c1CC(=O)NCc1cccc(C#N)c1)c(=O)[nH]n2C the result was B: 3.429%.
For Fc1ccc(-c2noc(CN3CCC(c4cc[nH]n4)CC3)n2)cc1 the result was A: 9.084%; B: 13.26%.
For O=C(O)C(F)(F)F.O=C(O)C(F)(F)F.[H][C@@]12COC[C@]1(C(=O)NCc1ccccn1)CN(C1CCC1)C2 the result was A: 21.09%; B: -1.228%.
For Oc1cc(-c2cccs2)nc(C2CCCN(CC3=CCCOC3)C2)n1 (stereo unspecified) the result was A: -3.419%; B: -12.87%.
For Cc1ccc(C)c(OC(C)C(=O)Nc2cccnc2)c1 (stereo unspecified) the result was B: -17.35%.
For Cc1ccc(C)c2c(O)cc(CN3CCNC(=O)C3C)nc12 (stereo unspecified) the result was A: 3.665%; B: -15.83%.

The last 2 entries again:

| structure | A | B |
|---|---|---|
| `Cc1ccc(C)c(OC(C)C(=O)Nc2cccnc2)c1` (stereo unspecified) | - | -17.35 |
| `Cc1ccc(C)c2c(O)cc(CN3CCNC(=O)C3C)nc12` (stereo unspecified) | 3.665 | -15.83 |